The numbers were not newly measured in US20110184061A1, “THIO[…] […], METHODS OF MAKING AND METHODS OF USE THEREOF” (priority 2010, published 2011), which cites them from elsewhere.

In the data set the test system is rat model. The following applies: metabolites of thiocolchicoside, compared with thiocolchicoside.

Regarding `COc1c(O)cc2c(c1OC)-c1ccc(SC)c(=O)cc1[C@@H](NC(C)=O)CC2` [aglycone derivative], the muscle relaxant activity result is reported as “no muscle relaxant activity”.
